From the supplement of paper PMC10849652
The other results are listed elsewhere or left out.

The chains behind the UniProt entries cited, without tags or fusion partners. Where a name states a change or a piece, a line headed by the entry shows the natural chain unless it says otherwise.
UniProt Q96AT9: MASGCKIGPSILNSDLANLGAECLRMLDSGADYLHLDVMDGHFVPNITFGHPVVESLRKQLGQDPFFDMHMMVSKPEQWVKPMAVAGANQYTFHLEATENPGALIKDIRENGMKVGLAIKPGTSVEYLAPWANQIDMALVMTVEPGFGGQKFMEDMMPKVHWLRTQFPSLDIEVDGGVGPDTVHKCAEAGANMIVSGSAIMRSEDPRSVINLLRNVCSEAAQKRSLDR
UniProt Q96DB5: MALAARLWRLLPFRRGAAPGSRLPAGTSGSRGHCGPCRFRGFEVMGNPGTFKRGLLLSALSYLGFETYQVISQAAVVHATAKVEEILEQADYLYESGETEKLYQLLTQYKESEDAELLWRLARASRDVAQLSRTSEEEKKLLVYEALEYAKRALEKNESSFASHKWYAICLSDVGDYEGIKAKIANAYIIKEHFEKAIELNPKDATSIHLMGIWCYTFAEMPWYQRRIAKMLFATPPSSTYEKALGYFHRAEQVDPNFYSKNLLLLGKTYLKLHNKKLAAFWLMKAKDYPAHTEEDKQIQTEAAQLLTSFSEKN
UniProt Q5UIP0: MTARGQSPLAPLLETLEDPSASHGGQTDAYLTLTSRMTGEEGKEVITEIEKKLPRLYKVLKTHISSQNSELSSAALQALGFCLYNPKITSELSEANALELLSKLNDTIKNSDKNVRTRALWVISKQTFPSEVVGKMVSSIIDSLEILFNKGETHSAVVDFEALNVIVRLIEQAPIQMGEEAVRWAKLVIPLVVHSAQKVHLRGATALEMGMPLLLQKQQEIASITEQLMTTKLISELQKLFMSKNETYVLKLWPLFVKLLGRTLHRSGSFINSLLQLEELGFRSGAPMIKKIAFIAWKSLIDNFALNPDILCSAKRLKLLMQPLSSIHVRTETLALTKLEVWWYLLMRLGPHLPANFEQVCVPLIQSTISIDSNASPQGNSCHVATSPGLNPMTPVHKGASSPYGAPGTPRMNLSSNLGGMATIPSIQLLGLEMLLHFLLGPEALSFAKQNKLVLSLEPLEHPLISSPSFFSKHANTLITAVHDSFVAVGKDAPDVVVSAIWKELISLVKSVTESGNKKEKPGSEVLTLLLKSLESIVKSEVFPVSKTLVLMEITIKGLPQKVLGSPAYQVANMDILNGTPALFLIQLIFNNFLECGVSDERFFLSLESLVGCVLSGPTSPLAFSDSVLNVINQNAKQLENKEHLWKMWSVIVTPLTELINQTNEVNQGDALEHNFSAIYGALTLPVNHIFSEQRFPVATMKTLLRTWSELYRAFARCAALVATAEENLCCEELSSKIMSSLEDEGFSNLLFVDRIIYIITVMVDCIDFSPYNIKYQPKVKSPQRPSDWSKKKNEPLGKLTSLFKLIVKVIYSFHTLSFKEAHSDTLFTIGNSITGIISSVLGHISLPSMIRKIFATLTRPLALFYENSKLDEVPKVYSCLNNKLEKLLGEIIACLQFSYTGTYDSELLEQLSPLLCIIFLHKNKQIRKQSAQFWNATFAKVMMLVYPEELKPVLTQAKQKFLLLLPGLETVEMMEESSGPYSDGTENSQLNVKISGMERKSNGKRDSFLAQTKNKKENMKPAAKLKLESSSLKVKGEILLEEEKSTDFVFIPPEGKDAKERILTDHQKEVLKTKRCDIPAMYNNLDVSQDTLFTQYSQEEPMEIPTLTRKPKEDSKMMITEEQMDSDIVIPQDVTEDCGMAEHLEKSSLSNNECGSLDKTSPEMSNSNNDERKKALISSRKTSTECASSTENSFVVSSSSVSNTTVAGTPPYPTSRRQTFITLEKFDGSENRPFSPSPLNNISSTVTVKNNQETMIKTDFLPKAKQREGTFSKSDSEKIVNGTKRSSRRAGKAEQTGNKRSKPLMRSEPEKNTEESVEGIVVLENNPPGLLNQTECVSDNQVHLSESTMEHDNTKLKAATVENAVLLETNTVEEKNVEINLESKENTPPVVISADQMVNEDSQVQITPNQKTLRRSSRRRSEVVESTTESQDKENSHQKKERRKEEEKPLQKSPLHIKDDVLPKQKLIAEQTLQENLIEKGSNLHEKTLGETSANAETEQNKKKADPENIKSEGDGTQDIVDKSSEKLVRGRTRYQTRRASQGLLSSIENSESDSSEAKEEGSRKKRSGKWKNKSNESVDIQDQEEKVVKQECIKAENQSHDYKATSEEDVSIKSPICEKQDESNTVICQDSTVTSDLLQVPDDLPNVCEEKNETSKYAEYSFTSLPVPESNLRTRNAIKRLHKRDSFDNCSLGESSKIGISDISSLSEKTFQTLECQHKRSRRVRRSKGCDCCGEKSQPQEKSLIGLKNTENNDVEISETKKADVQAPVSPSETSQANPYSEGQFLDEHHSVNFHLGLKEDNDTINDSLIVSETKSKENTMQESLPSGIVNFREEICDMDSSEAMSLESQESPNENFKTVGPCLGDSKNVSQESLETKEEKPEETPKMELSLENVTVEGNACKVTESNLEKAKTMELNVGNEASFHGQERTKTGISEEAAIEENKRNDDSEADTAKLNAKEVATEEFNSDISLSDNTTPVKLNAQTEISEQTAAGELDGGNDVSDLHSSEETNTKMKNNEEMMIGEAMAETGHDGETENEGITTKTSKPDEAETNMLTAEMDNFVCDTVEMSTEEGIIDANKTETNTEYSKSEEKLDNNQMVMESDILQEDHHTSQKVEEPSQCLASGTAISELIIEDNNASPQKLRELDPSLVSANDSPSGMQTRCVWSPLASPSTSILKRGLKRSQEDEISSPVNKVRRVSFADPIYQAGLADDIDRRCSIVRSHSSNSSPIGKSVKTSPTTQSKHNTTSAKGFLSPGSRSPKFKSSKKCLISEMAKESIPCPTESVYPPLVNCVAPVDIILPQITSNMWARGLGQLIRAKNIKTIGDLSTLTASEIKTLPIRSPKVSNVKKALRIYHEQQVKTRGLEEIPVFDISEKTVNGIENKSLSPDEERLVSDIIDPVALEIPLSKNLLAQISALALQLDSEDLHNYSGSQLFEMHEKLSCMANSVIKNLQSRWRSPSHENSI
UniProt Q06587: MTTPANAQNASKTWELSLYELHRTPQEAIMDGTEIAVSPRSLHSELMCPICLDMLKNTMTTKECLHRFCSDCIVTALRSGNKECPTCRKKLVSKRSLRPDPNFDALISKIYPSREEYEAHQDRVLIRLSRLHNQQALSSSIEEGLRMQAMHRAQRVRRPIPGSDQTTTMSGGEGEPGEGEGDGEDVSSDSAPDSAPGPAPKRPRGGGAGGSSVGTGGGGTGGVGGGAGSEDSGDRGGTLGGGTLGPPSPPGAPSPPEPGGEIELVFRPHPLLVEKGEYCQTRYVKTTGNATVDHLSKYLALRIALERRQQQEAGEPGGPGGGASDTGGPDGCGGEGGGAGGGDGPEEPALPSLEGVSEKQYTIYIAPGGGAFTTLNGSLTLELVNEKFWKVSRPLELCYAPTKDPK
UniProt Q8WVD5: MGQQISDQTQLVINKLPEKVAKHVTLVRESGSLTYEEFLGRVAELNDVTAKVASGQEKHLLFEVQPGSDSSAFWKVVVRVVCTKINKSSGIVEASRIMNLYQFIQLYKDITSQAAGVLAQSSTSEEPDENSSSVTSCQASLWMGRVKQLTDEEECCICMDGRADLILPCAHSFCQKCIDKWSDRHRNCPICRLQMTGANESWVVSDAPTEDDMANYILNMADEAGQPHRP
UniProt Q969K3: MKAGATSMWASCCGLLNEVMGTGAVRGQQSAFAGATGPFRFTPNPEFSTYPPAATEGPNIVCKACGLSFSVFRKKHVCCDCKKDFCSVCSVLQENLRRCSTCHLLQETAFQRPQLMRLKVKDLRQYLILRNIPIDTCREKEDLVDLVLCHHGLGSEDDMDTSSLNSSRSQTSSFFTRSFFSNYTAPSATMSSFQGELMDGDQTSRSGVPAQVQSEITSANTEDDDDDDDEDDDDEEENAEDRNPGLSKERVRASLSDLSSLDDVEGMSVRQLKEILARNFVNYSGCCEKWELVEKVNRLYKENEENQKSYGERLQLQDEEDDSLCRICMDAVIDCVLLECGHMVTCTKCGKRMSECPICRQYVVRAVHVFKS
UniProt P13489: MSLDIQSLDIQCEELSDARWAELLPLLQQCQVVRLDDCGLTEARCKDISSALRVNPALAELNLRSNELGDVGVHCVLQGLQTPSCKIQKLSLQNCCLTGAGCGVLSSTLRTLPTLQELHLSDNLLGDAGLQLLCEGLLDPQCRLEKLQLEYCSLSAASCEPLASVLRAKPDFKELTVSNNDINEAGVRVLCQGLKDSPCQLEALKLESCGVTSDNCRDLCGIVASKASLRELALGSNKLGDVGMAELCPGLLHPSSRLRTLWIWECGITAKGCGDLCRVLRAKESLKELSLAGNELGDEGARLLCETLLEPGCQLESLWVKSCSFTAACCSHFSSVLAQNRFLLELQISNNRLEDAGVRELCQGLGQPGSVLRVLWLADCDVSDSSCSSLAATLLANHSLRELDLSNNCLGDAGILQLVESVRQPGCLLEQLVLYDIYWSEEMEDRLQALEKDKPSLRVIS
UniProt P08134, whole entry, looked up: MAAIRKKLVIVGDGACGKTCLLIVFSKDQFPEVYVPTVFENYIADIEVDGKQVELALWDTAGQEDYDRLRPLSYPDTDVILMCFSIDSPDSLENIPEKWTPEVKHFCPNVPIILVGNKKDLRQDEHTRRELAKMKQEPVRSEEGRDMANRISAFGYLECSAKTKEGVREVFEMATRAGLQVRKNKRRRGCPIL
UniProt Q8NC42: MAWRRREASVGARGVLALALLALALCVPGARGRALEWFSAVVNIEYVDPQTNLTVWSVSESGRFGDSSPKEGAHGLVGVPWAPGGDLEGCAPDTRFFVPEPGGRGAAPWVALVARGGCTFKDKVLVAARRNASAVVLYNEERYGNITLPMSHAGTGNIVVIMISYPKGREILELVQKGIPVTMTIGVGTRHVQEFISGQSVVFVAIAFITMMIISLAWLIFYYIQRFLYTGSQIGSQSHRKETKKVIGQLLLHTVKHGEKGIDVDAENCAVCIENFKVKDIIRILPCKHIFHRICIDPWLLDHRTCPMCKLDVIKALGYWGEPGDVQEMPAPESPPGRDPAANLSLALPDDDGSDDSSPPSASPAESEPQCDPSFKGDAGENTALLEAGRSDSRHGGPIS
UniProt P27694, whole entry, looked up: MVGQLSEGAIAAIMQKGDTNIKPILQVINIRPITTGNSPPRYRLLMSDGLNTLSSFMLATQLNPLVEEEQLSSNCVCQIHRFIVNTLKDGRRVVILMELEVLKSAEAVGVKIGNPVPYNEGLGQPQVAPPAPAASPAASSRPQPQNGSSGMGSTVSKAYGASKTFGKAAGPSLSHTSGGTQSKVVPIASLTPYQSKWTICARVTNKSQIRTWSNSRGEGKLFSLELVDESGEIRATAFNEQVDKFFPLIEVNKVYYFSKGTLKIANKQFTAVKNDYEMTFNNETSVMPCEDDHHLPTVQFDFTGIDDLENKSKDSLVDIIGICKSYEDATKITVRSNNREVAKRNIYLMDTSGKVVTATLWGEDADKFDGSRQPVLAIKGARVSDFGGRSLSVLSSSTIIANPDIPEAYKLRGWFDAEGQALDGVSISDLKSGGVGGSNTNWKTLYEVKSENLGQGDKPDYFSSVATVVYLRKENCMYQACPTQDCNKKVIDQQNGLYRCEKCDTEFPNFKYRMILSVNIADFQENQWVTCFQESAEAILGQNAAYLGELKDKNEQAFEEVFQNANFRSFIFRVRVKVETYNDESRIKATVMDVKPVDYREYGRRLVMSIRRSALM
UniProt Q9HAU8: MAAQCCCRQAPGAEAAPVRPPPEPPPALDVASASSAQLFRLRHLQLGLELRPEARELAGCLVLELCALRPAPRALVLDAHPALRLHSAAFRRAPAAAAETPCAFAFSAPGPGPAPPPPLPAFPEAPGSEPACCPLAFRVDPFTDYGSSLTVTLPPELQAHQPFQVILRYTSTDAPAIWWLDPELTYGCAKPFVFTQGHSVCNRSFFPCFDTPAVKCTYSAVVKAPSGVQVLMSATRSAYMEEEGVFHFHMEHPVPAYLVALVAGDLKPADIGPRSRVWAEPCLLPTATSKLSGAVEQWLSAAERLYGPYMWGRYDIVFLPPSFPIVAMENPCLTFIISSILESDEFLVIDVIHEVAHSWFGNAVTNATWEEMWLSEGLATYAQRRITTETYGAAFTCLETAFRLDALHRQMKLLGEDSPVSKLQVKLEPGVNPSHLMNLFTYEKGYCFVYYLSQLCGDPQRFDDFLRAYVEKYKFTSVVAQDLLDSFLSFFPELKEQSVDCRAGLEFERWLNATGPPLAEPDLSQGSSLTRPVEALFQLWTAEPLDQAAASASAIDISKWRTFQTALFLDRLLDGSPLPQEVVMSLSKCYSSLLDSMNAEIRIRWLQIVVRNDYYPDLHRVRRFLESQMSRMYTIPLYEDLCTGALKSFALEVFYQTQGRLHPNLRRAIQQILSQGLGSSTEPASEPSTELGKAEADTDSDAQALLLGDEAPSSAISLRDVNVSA

Legend:
Experiment in all cases: log2 fold change, soluble protein after heating vs DMSO (PISA); higher = thermal stabilisation; K562 lysate, 10 uM; active = over 0.2 and 3.5 SD of the protein, either way, in both replicates (recomputed)
nilotinib = compound: Cc1cn(-c2cc(NC(=O)c3ccc(C)c(Nc4nccc(-c5cccnc5)n4)c3)cc(C(F)(F)F)c2)cn1 [nilotinib]
Summary of the method: (§1)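 A 30 min treatment with 10 μM compound was applied to crude K562 extract at 1 mg/mL protein in PBS pH 7.4 with 1 mM MgCl2. Heating for 3 min spanned 48°C-58°C, after which aliquots were pooled, adjusted to 0.5% NP-40 at 4°C and spun at 21,000xg for 90 min. TMTpro 16plex LC-MS/MS of the supernatant, with channel sums equalised, gave values recorded as log-two fold change in thermal stability against solvent controls, from duplicates.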

[1] = compound: Cc1nc(Nc2n[nH]c3c2CN(C(=O)N[C@H](CN(C)C)c2ccccc2)C3(C)C)c2sccc2n1
Summary of the method: as §1

dasatinib = compound: Cc1nc(Nc2ncc(C(=O)Nc3c(C)cccc3Cl)s2)cc(N2CCN(CCO)CC2)n1 [dasatinib]
Summary of the method: as §1

[2] = compound: Cc1ncc(-c2ccnc(Nc3ccc(S(C)(=O)=O)cc3)n2)n1C(C)C
Summary of the method: as §1

[3] = compound: Cn1cc(-c2ccc3c(c2)CCN3C(=O)Cc2cccc(C(F)(F)F)c2)c2c(N)ncnc21
Summary of the method: as §1

quisinostat = compound: Cn1cc(CNCC2CCN(c3ncc(C(=O)NO)cn3)CC2)c2ccccc21 [quisinostat]
Summary of the method: as §1

tipifarnib = compound: Cn1cncc1[C@@](N)(c1ccc(Cl)cc1)c1ccc2c(c1)c(-c1cccc(Cl)c1)cc(=O)n2C [tipifarnib]
Summary of the method: as §1

[4] = compound: NC(=O)Nc1cc(-c2cccc(F)c2)sc1C(=O)N[C@H]1CCCNC1
Summary of the method: as §1

[5] = compound: NC(=O)c1cnc(N[C@@H]2CCCC[C@@H]2N)nc1Nc1cccc(-n2nccn2)c1
Summary of the method: as §1

[6] = compound: NC1(c2ccc(-c3nc4ccn5c(=O)[nH]nc5c4cc3-c3ccccc3)cc2)CCC1
Summary of the method: as §1

[7] = compound: NCC(=O)Nc1ccc(-n2nc(C(F)(F)F)cc2-c2ccc3c(ccc4ccccc43)c2)cc1
Summary of the method: as §1

vorinostat = compound: O=C(CCCCCCC(=O)Nc1ccccc1)NO [vorinostat]
Summary of the method: as §1

silmitasertib = compound: O=C(O)c1ccc2c(c1)nc(Nc1cccc(Cl)c1)c1ccncc12 [silmitasertib]
Summary of the method: as §1

[8] = compound: O=C1NC(=O)C(c2cnc3ccccn23)=C1c1cn2c3c(cc(F)cc13)CN(C(=O)N1CCCCC1)CC2
Summary of the method: as §1

entospletinib = compound: c1cn2cc(-c3ccc4cn[nH]c4c3)nc(Nc3ccc(N4CCOCC4)cc3)c2n1 [entospletinib]
Summary of the method: as §1

Measured: log2 fold change

RHOU (UniProt Q7L0Q8)
inactive: nilotinib -0.032 | [1] -0.028 | dasatinib -0.004 | [2] 0.114 | [3] 0.145 | quisinostat -0.053 | tipifarnib 0.12 | [4] 0.035 | [5] -0.045 | [6] 0.033 | [7] 0.019 | vorinostat -0.116 | silmitasertib 0.058 | [8] -0.039 | entospletinib 0.024

RNF213, A0A0A0MTC1
active: vorinostat -0.381
inactive: nilotinib 0.015 | [1] -0.016 | dasatinib -0.027 | [2] -0.019 | [3] 0.035 | quisinostat -0.033 | tipifarnib 0.001 | [4] 0.071 | [5] 0.015 | [6] -0.016 | [7] 0.022 | silmitasertib 0.032 | [8] 0.007 | entospletinib 0.052

RPE (UniProt Q96AT9)
inactive: nilotinib 0.112 | [1] -0.029 | dasatinib -0.013 | [2] 0.05 | [3] 0.012 | quisinostat 0.016 | tipifarnib -0.083 | [4] -0.036 | [5] -0.073 | [6] -0.017 | [7] -0.177 | vorinostat 0.106 | silmitasertib -0.095 | [8] 0.011 | entospletinib 0.027

RMDN1 (UniProt Q96DB5)
inactive: nilotinib 0.048 | [1] 0 | dasatinib -0.015 | [2] -0.002 | [3] 0.009 | quisinostat 0.052 | tipifarnib 0.023 | [4] 0.005 | [5] 0.001 | [6] 0.014 | [7] -0.005 | vorinostat 0.105 | silmitasertib 0.022 | [8] -0.017 | entospletinib 0.006

RIF1 (UniProt Q5UIP0)
inactive: nilotinib -0.011 | [1] 0.019 | dasatinib 0.017 | [2] -0.003 | [3] -0.023 | quisinostat -0.059 | tipifarnib -0.02 | [4] 0.025 | [5] 0.037 | [6] 0.027 | [7] 0.003 | vorinostat -0.204 | silmitasertib 0 | [8] 0.012 | entospletinib -0.037

RHOG (UniProt P84095)
inactive: nilotinib 0.019 | [1] 0.001 | dasatinib 0.005 | [2] 0.039 | [3] -0.003 | quisinostat 0.057 | tipifarnib 0.016 | [4] -0.04 | [5] -0.033 | [6] -0.006 | [7] 0 | vorinostat 0.092 | silmitasertib 0.001 | [8] 0.01 | entospletinib 0.015

RING1 (UniProt Q06587)
inactive: nilotinib 0.033 | [1] -0.003 | dasatinib -0.004 | [2] 0.067 | [3] 0.009 | quisinostat 0.051 | tipifarnib -0.042 | [4] 0.006 | [5] -0.04 | [6] 0.027 | [7] 0.027 | vorinostat -0.138 | silmitasertib -0.008 | [8] 0.044 | entospletinib 0.028

RNF141 (UniProt Q8WVD5)
inactive: nilotinib 0.01 | [1] -0.002 | dasatinib 0.061 | [2] 0.011 | [3] -0.067 | quisinostat -0.067 | tipifarnib 0.007 | [4] 0.028 | [5] -0.043 | [6] 0 | [7] -0.158 | vorinostat -0.112 | silmitasertib -0.047 | [8] 0.039 | entospletinib 0.147

RNF34 isoform 2 (UniProt Q969K3)
inactive: nilotinib 0.058 | [1] 0.053 | dasatinib -0.05 | [2] 0.254 | [3] 0.052 | quisinostat -0.01 | tipifarnib -0.193 | [4] -0.014 | [5] 0.246 | [6] -0.059 | [7] -0.085 | vorinostat -0.159 | silmitasertib 0.051 | [8] 0.046 | entospletinib 0.058

RNH1 (UniProt P13489)
inactive: nilotinib 0.037 | [1] 0.05 | dasatinib 0.007 | [2] 0.058 | [3] -0.029 | quisinostat 0.024 | tipifarnib -0.034 | [4] -0.024 | [5] -0.014 | [6] 0.016 | [7] 0.023 | vorinostat 0.267 | silmitasertib -0.015 | [8] 0.017 | entospletinib -0.023

RPL36 (UniProt Q9Y3U8)
inactive: nilotinib 0.056 | [1] -0.04 | dasatinib 0.009 | [2] -0.018 | [3] 0.014 | quisinostat -0.021 | tipifarnib -0.009 | [4] 0.02 | [5] 0.006 | [6] -0.033 | [7] 0.039 | vorinostat 0.103 | silmitasertib -0.003 | [8] 0.039 | entospletinib 0.002

Random excerpt: two entries already listed
RIF1 (UniProt Q5UIP0)
inactive: nilotinib -0.011 | [1] 0.019 | dasatinib 0.017 | [2] -0.003 | [3] -0.023 | quisinostat -0.059 | tipifarnib -0.02 | [4] 0.025 | [5] 0.037 | [6] 0.027 | [7] 0.003 | vorinostat -0.204 | silmitasertib 0 | [8] 0.012 | entospletinib -0.037

RPL36 (UniProt Q9Y3U8)
inactive: nilotinib 0.056 | [1] -0.04 | dasatinib 0.009 | [2] -0.018 | [3] 0.014 | quisinostat -0.021 | tipifarnib -0.009 | [4] 0.02 | [5] 0.006 | [6] -0.033 | [7] 0.039 | vorinostat 0.103 | silmitasertib -0.003 | [8] 0.039 | entospletinib 0.002

(list continues)

RPL27 (UniProt P61353)
inactive: nilotinib 0.022 | [1] -0.029 | dasatinib -0.049 | [2] 0.01 | [3] 0 | quisinostat 0.054 | tipifarnib -0.01 | [4] -0.017 | [5] -0.023 | [6] 0.012 | [7] 0.014 | vorinostat 0.129 | silmitasertib 0.03 | [8] 0.013 | entospletinib 0.009

RPL18A (UniProt Q02543)
inactive: nilotinib 0.013 | [1] -0.019 | dasatinib 0.034 | [2] -0.016 | [3] -0.007 | quisinostat 0.099 | tipifarnib -0.011 | [4] -0.037 | [5] 0 | [6] 0 | [7] -0.032 | vorinostat 0.048 | silmitasertib 0.02 | [8] 0.04 | entospletinib 0.033

RHOC (UniProt P08134)
inactive: nilotinib 0.014 | [1] 0.014 | dasatinib -0.003 | [2] 0.011 | [3] -0.012 | quisinostat 0.015 | tipifarnib -0.026 | [4] -0.025 | [5] -0.012 | [6] 0.024 | [7] -0.046 | vorinostat -0.042 | silmitasertib 0.078 | [8] -0.007 | entospletinib 0.027

RMND1 (UniProt Q9NWS8)
inactive: nilotinib -0.001 | [1] 0.064 | dasatinib 0.014 | [2] -0.002 | [3] 0.034 | quisinostat 0.048 | tipifarnib 0.071 | [4] 0.028 | [5] 0.069 | [6] 0.032 | [7] 0.01 | vorinostat 0.092 | silmitasertib 0.019 | [8] 0.031 | entospletinib -0.015

RNF149 (UniProt Q8NC42)
inactive: nilotinib 0.083 | [1] 0.129 | dasatinib -0.019 | [2] 0.099 | [3] 0.003 | quisinostat -0.019 | tipifarnib 0.087 | [4] 0.038 | [5] 0.156 | [6] -0.019 | [7] 0.036 | vorinostat 0.098 | silmitasertib 0.013 | [8] 0.015

RPL21 (UniProt P46778)
inactive: nilotinib 0.018 | [1] -0.037 | dasatinib 0.023 | [2] -0.019 | [3] -0.032 | quisinostat -0.033 | tipifarnib 0.019 | [4] 0.004 | [5] 0 | [6] -0.068 | [7] 0.055 | vorinostat 0.093 | silmitasertib -0.05 | [8] 0.017 | entospletinib -0.005

RMC1 (UniProt Q96DM3)
inactive: nilotinib 0.027 | [1] 0.005 | dasatinib 0.008 | [2] -0.002 | [3] 0.003 | quisinostat -0.02 | tipifarnib -0.057 | [4] 0.035 | [5] -0.007 | [6] 0.036 | [7] 0.008 | silmitasertib 0.017 | [8] -0.013 | entospletinib 0.037
active: vorinostat -0.391

RP2 (UniProt O75695)
inactive: nilotinib -0.007 | [1] -0.011 | dasatinib -0.028 | [2] -0.002 | [3] -0.014 | quisinostat 0.049 | tipifarnib 0 | [4] 0.007 | [5] 0.039 | [6] -0.043 | [7] -0.079 | vorinostat 0.178 | silmitasertib -0.043 | [8] -0.017 | entospletinib 0.029

RPA1 (UniProt P27694)
inactive: nilotinib -0.014 | [1] 0.018 | dasatinib 0.014 | [2] -0.007 | [3] -0.007 | quisinostat 0.02 | tipifarnib -0.008 | [4] -0.004 | [5] 0.006 | [6] -0.008 | [7] 0.015 | vorinostat 0.027 | silmitasertib -0.005 | [8] -0.018 | entospletinib 0.013

RNPEPL1 (UniProt Q9HAU8)
inactive: nilotinib -0.108 | [1] -0.054 | dasatinib 0.023 | [2] 0.209 | [3] -0.03 | quisinostat 0.013 | tipifarnib 0.011 | [4] 0.047 | [5] 0.012 | [6] -0.058 | [7] -0.196 | vorinostat -0.098 | silmitasertib -0.15 | [8] -0.061
